Data as given in PubChem BioAssay AID1259308 (NCATS, 2017).
This is one part, drawn at random, of about 59,000 reagents. In the full data, about 1,510 (2.6%) got an active call. 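Calls use total luciferase alone and ignore viability, so some active siRNAs may act by altering cell number.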 The numbers tell different reagents against one gene apart. Reagent sequences are not shown.

Assay: 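Knock-downs that increase output of a recombinant reporter protein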 (primary screen)
Cell system: human HEK293 embryonic kidney cells stably expressing firefly luciferase (HEK-CMV-Luc2-Hygro)
Reagent: single siRNA against human genes, 0.8 pmol siRNA per well
Timing: 72 h
Measurement: 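Luciferase light (ONE-Glo) measured on one replicate plate set and viability (CellTiter-Glo) on the other, scaled to a negative control siRNA, with robust z-scores and luciferase per cell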
Direction: total luciferase, z-score and total luciferase, % of control: higher = more reporter protein produced; luciferase per cell, z-score: higher = more reporter output per viable cell; viable cells, % of control: higher = more viable cells
Active means: 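Active when the median/MAD z-score for overall luciferase is greater than 3; a gene was taken forward for validation with new siRNAs if at least two of its three siRNAs passed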
Calls: active = raised luciferase; inactive = no rise

The opening 9 records, ahead of the listing:
no.	gene knocked down	siRNA no.	total luciferase, z-score	total luciferase, % of control	luciferase per cell, z-score	viable cells, % of control	outcome
1	IFT70A	1	1.97	121	2.7	66.4	inactive
2	IFT70A	2	-0.853	64.9	-0.422	81.1	inactive
3	IFT70A	3	-0.237	77.2	-1.03	113	inactive
4	FAM149A	1	0.967	101	1.74	71.5	inactive
5	FAM149A	2	-1.25	57	-1.1	85	inactive
6	FAM149A	3	1.71	116	1.99	76.7	inactive
7	TNFSF13B	1	0.0902	83.7	0.104	91	inactive
8	TNFSF13B	2	-1.37	54.6	-1.58	92.5	inactive
9	TNFSF13B	3	-1.14	59.3	-0.946	84.9	inactive

Results, from the start:
no.	gene knocked down	siRNA no.	total luciferase, z-score	total luciferase, % of control	luciferase per cell, z-score	viable cells, % of control	outcome
1	IFT70A	1	1.97	121	2.7	66.4	inactive
2	IFT70A	2	-0.853	64.9	-0.422	81.1	inactive
3	IFT70A	3	-0.237	77.2	-1.03	113	inactive
4	FAM149A	1	0.967	101	1.74	71.5	inactive
5	FAM149A	2	-1.25	57	-1.1	85	inactive
6	FAM149A	3	1.71	116	1.99	76.7	inactive
7	TNFSF13B	1	0.0902	83.7	0.104	91	inactive
8	TNFSF13B	2	-1.37	54.6	-1.58	92.5	inactive
9	TNFSF13B	3	-1.14	59.3	-0.946	84.9	inactive
10	ANKRD28	1	6.04	202	3.77	83.7	active
11	ANKRD28	2	-1.15	59.1	-2.07	114	inactive
12	ANKRD28	3	0.294	87.7	0.764	80.2	inactive
13	TMEM37	1	0.759	97	0.68	90.6	inactive
14	TMEM37	2	0.299	87.8	0.0615	96.6	inactive
15	TMEM37	3	-1.39	54.2	-0.779	74.3	inactive
16	TMPRSS5	1	0.855	98.9	0.46	97.9	inactive
17	TMPRSS5	2	0.476	91.3	0.152	98.1	inactive
18	TMPRSS5	3	-0.499	72	-0.197	84.7	inactive
19	GPBP1	1	-0.317	75.6	0.292	78.2	inactive
20	GPBP1	2	0.492	91.7	-0.16	107	inactive
21	GPBP1	3	-0.159	78.7	0.547	76.2	inactive
22	GOLGA2P10	1	3.14	144	1.7	103	active
23	GOLGA2P10	2	1.27	107	1.18	87.8	inactive
24	GOLGA2P10	3	0.502	91.9	0.852	82	inactive
25	ZBTB40	1	-1.03	61.4	-0.727	83	inactive
26	ZBTB40	2	-0.506	71.8	0.372	72.8	inactive
27	ZBTB40	3	0.177	85.4	0.115	92.6	inactive
28	DDX49	1	-0.499	72	-0.662	95.7	inactive
29	DDX49	2	-0.885	64.3	-0.236	76.4	inactive
30	DDX49	3	0.137	84.6	0.355	86.1	inactive
31	SYT15	1	2.2	126	1.57	92.8	inactive
32	SYT15	2	-0.24	77.1	-0.617	101	inactive
33	SYT15	3	0.451	90.9	0.951	79	inactive
34	TUBGCP4	1	-0.0102	81.7	0.213	86.3	inactive
35	TUBGCP4	2	1.22	106	1.01	90.9	inactive
36	TUBGCP4	3	0.367	89.2	0.504	87.3	inactive
37	ATP8B5P	1	1.01	102	0.844	91.2	inactive
38	ATP8B5P	2	-0.682	68.3	-0.915	97.1	inactive
39	ATP8B5P	3	0.505	91.9	0.637	86.9	inactive
40	DMBX1	1	-0.238	77.2	-0.132	89.3	inactive
41	DMBX1	2	0.337	88.6	0.106	96.3	inactive
42	DMBX1	3	-0.1	79.9	0.0704	87.6	inactive
43	CAB39	1	-0.31	75.7	0.853	67.6	inactive
44	CAB39	2	-0.792	66.1	-0.717	89.3	inactive
45	CAB39	3	-0.226	77.4	0.1	84.2	inactive
46	CILK1	1	0.893	99.6	0.65	93.8	inactive
47	CILK1	2	1.12	104	0.913	91.5	inactive
48	CILK1	3	-1.78	46.6	0.893	41.1	inactive
49	LOC112268070	1	1.02	102	0.607	97.3	inactive
50	LOC112268070	2	1.25	107	0.75	97.9	inactive
51	LOC112268070	3	1.36	109	1.11	91	inactive
52	RIPOR3	1	-0.00927	81.7	-0.331	99.6	inactive
53	RIPOR3	2	1.17	105	1.43	80.7	inactive
54	RIPOR3	3	1.29	108	0.665	101	inactive
55	LOC729968	1	2.29	127	3.41	58	inactive
56	LOC729968	2	-0.883	64.3	-0.463	81.2	inactive
57	LOC729968	3	0.72	96.2	0.514	93.9	inactive
58	LOC729968	4	2.11	124	2.31	75.4	inactive
59	LOC729968	5	0.462	91.1	-0.00897	102	inactive
60	LOC729968	6	0.114	84.2	-0.679	112	inactive
61	FOXN4	1	-0.584	70.3	0.297	72.6	inactive
62	FOXN4	2	-0.157	78.8	-0.892	111	inactive
63	FOXN4	3	-0.649	69	-0.708	92.9	inactive
64	POLR2A	1	-3.93	3.71	-6.41	22.4	inactive
65	POLR2A	2	-3.26	17.1	-1.7	29.8	inactive
66	POLR2A	3	-1.74	47.3	-1.24	73.2	inactive
67	LETMD1	1	1.02	102	2.13	65.1	inactive
68	LETMD1	2	0.264	87.1	-0.235	104	inactive
69	LETMD1	3	-1.83	45.4	-1.09	67.6	inactive
70	MAP3K21	1	0.854	98.9	0.541	95.8	inactive
71	MAP3K21	2	1.96	121	1.68	86.8	inactive
72	MAP3K21	3	1.64	114	1.54	85.3	inactive
73	C18orf32	1	1.76	117	1.67	84	inactive
74	C18orf32	2	-0.135	79.2	-0.0117	88.8	inactive
75	C18orf32	3	-2.53	31.7	-2.73	72.6	inactive
